One substance from publication PMC9006432 can be followed below.

Amino acid sequences for entries named in this document (tags omitted). A change or cut given only in a name is not applied to a line headed by its entry.
UniProt P49736: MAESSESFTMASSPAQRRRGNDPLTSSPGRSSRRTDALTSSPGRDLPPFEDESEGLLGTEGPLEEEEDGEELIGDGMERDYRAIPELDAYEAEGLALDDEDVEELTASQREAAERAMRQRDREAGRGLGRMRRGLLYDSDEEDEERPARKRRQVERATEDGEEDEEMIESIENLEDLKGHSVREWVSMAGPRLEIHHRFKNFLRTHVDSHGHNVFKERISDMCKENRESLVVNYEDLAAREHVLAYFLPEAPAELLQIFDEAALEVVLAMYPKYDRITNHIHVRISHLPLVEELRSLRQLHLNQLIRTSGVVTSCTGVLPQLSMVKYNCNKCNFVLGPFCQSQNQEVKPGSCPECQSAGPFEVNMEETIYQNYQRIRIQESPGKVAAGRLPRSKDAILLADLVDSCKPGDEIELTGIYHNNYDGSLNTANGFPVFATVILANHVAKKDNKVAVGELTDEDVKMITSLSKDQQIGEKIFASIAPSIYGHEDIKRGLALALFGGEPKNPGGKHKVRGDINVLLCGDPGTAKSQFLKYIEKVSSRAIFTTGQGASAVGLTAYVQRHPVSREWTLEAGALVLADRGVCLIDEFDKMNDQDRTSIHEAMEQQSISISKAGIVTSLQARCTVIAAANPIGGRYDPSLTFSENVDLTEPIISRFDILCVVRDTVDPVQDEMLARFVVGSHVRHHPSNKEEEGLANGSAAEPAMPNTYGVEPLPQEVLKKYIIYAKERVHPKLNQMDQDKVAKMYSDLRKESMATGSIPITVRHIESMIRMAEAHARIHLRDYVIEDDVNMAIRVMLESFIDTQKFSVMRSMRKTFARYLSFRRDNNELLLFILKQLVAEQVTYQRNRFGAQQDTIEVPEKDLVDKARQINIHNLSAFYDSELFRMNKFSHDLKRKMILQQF
UniProt P39748: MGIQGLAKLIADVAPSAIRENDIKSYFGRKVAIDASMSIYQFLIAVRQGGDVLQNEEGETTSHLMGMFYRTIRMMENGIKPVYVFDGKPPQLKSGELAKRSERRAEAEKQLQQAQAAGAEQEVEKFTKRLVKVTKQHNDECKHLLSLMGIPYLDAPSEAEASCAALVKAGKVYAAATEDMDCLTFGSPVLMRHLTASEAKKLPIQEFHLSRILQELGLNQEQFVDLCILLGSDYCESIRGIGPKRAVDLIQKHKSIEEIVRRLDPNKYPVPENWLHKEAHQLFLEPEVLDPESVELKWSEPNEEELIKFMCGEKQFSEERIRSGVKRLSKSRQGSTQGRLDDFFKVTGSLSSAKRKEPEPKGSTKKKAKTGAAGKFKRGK

The target of experiment [1] is MCM2 (human (endogenous in M059J and M059K)) (UniProt P49736). As to the kind of experiment: proximity ligation; in situ PLA (Duolink) on pre-extracted (CSK-R buffer), fixed cells with antibodies against the two endogenous proteins; M059K with or without 2 mM HU for 4 h, siNC; M059J or M059K transfected with siDNA-PKcs.
Experiment [2] concerns the target T1, MCM5 (human (endogenous in M059J and M059K)) (UniProt P33992).
T1 sequence: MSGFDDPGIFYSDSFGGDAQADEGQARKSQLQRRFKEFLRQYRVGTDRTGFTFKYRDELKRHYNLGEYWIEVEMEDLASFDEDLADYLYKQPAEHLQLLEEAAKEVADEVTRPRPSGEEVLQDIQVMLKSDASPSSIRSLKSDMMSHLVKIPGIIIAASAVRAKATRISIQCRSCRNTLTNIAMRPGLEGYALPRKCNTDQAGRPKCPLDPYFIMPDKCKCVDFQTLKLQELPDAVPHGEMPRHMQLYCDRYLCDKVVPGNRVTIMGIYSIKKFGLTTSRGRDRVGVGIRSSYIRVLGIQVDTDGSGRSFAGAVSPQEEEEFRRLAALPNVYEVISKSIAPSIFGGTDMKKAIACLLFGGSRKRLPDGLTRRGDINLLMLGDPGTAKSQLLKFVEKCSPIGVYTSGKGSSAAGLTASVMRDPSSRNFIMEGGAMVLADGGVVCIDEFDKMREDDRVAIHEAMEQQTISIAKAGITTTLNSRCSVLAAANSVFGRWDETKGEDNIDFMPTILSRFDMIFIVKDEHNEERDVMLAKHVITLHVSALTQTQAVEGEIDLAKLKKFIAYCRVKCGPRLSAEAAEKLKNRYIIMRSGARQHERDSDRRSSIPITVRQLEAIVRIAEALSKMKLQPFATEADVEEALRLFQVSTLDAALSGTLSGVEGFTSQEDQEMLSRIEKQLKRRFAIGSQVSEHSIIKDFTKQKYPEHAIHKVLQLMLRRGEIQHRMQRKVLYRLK
The description is as above.

These are yes or no findings as the source states them, for the method shown. Binding seen in cells or lysates may run through a third protein. Some results given as binding are weak or reduced against the parent protein; the word gives no strength.

Consider “Flap endonuclease 1 (FEN1) (from UniProt P39748 1-380)”, for which the binding result in experiment [1] and in experiment [2] was “binds” each time.
